# Measurements: PubChem BioAssay AID540276 (National Center for Advancing Translational Sciences (NCATS), 2011)
# Hit rate of the full screen: of about 300,000 compounds, about 5,400 (1.8%) were called active. The inconclusive results got no clear call from the source; some entries with a clear call stand among them for comparison. Calls follow the shape of the full dose curve; tested in HEK293 cells. A potency beside an inconclusive call is a rough fit, not a confirmed value.
# Test: qHTS for inhibitors of binding or entry into cells for Marburg Virus
# Settings: Marburg virus pseudotyped entry inhibition, cell reporter; series mostly up to 37.8 µM
# Potency is read from the fitted curve at half-maximal effect.
row,Structure (SMILES),Potency
1,Cc1cc(Cl)cc(C)c1OCCn1ccnc1,active: 1.26 µM
2,COc1ccc(Cl)cc1NC(=O)c1cc(C)no1,inactive
3,O=C(Nc1ccc([N+](=O)[O-])cc1)/C(=C/c1cccc([N+](=O)[O-])c1)NC(=O)C1CCCCC1,"inconclusive: 1.03 µM [inhibitor, full curve, poor fit]"
4,COc1ccc(C=O)cc1CN1CCCN(Cc2ccc(Cl)cc2)S1(=O)=O,"inconclusive: 7.94 µM [inhibitor, partial curve, poor fit]"
5,Clc1ccc(-c2csc(Nc3cccnc3)n2)cc1,"inconclusive: 5.01 µM [activator, single point]"
6,Cn1c2c(c(=O)n(C)c1=O)C1c3cc(Cl)ccc3OCC1CO2 (centres undefined),"inconclusive: 17.8 µM [inhibitor, partial curve, poor fit]"
7,COc1ccc2[nH]c3c(N4CCN(Cc5ccc6c(c5)OCO6)CC4)ncnc3c2c1,"inconclusive: 12.6 µM [inhibitor, partial curve, poor fit]"
8,Cc1ccc(/C=C/C(=O)Nc2ccccc2C(N)=O)cc1,active: 13 µM
9,CCCS(=O)(=O)N1CCC(C(=O)NC2CCC(C)CC2)CC1 (centres undefined),inactive
10,Cc1cccc2c1-c1sc(C(=O)N3CCN(c4ccccc4)CC3)cc1CO2,inactive
11,Cc1noc(C)c1CSc1nnc(-c2c[nH]c3ccccc23)n1-c1ccc(Cl)cc1,"inconclusive: 7.08 µM [inhibitor, full curve, poor fit]"
12,COc1ccc(S(=O)(=O)Nc2ccccc2OC)cc1NC(=O)CC1CC2CCC1C2 (centres undefined),"inconclusive: 25.1 µM [inhibitor, partial curve, poor fit]"
13,COc1ccc(-c2cc(C(F)(F)F)c3c(N)c(C(=O)NCCSC)sc3n2)cc1,inactive
14,COCCCN1C(=O)c2ccc(C(=O)OCC(=O)N(C)c3ccccc3)cc2C1=O,"inconclusive: 11.2 µM [activator, partial curve, poor fit]"
15,CSC1=NC2(CC(c3ccccc3)Oc3cc(O)ccc32)CC(C)(C)N1 (centres undefined),"inconclusive: 11.2 µM [inhibitor, single point]"
16,O=C(COc1cccc(NC(=O)c2cccs2)c1)c1ccc(F)cc1,"inconclusive: 20 µM [inhibitor, partial curve]"
17,COC(=O)C(O)(c1ccc(NC(=O)NC2CCCCC2)cc1)C(F)(F)F (centres undefined),"inconclusive: 2.24 µM [activator, full curve, poor fit]"
18,O=C1OC(c2ccccc2)(c2cc(Br)ccc2O)c2ccccc21 (centres undefined),"inconclusive: 10 µM [inhibitor, partial curve, poor fit]"
19,C/C(Cn1nnc([N+](=O)[O-])n1)=N\NC(=O)c1ccc(O)cc1O,"inconclusive: 22.4 µM [inhibitor, partial curve, poor fit]"
20,O=C(O)CCc1ccc(-c2ccc(Cl)cc2)n1CC(=O)O,inactive
21,O=C(N/N=C\c1ccc(F)cc1)c1csnn1,inactive
22,O=C(OCc1ccccc1)N1CCOCCN(C(=O)OCc2ccccc2)CCOCC1,"inconclusive: 2.82 µM [inhibitor, full curve]"

row,Structure (SMILES),Potency
1,CC(=O)c1ccc(OC(=O)C2c3ccccc3Oc3ccccc32)cc1,"inconclusive: 1 µM [activator, full curve]"
2,C[n+]1cn(/N=C/c2ccccc2)c2ccccc21,inactive
3,Cc1cc(OCC(=O)Nc2ccc(S(=O)(=O)N3CCN(C)CC3)cc2)ccc1Cl,"inconclusive: 35.5 µM [inhibitor, single point]"
4,Cc1cc(C)nc(SCC(=O)N/N=C/c2cc(C)n(-c3ccccc3C)c2C)n1,inactive
5,COc1ccc(Nc2nc(-c3cccc(Cl)c3)c3c(n2)-c2ccccc2OC3)cc1,"inconclusive: 35.5 µM [activator, single point]"
6,CCc1cc(C(=O)c2ccccc2)c(N)s1,inactive
7,O=C(NCCN1CCN(c2ccccc2)CC1)Nc1cccc(Br)c1,inactive
8,CC1(C)CC(=O)c2cc(-c3nc(-c4ccccc4)cs3)c(=O)[nH]c2C1,"inconclusive: 3.16 µM [inhibitor, partial curve, poor fit]"
9,CCOC(=O)CC(=O)CSc1nc(-c2ccccc2)cc(-c2ccccc2)c1C#N,"inconclusive: 11.2 µM [inhibitor, partial curve, poor fit]"
10,Cc1ccc(NC(=O)C2CCN(S(=O)(=O)c3c(C)noc3C)CC2)cc1,inactive
11,CCOC(=O)C1CCCN(Cc2cc(=O)oc3cc(C)ccc23)C1 (centres undefined),inactive
12,COc1ccc(NC(=O)C[C@H]2C(=O)N(c3ccc(Br)cc3)C[C@@H]2CSC)cc1,"inconclusive: 11.2 µM [inhibitor, full curve, poor fit]"
13,O=C1CCCN1c1ccc(CNS(=O)(=O)c2ccc(F)cc2)cc1,inactive
14,Cc1ccc(NC(=O)Cn2cc(C(=O)c3ccccc3)c3ccccc32)cc1,"inconclusive: 35.5 µM [inhibitor, single point]"
15,O=C(Nc1nc(-c2ccccc2)cs1)c1ccc2c(=O)n3c(nc2c1)CCCCC3,inactive
16,COC(=O)c1cc2oc3ccccc3c2n1Cc1nc(-c2ccccc2Cl)oc1C,inactive
17,CS(=O)(=O)Nc1ccccc1C(=O)NCC1(N2CCCCC2)CCCCC1,"inconclusive: 2.51 µM [inhibitor, full curve, poor fit]"
18,CC(C)(C)n1cnc2cc(NCc3cccs3)ccc21,"inconclusive: 0.562 µM [activator, full curve, poor fit]"
19,CCOC(=O)C(NC(=O)Nc1ccccc1)(OCC)C(F)(F)F (centres undefined),"inconclusive: 1.26 µM [activator, single point]"
20,COc1ccc(OCC(=O)N2CCN(C(=O)c3ccc([N+](=O)[O-])cc3)CC2)cc1,"inconclusive: 6.31 µM [inhibitor, single point]"
21,COc1cccc(-c2ccc(NC(=O)C3CCCN(Cc4cnn(C(C)C)c4)C3)cc2)c1 (centres undefined),"inconclusive: 7.08 µM [inhibitor, partial curve, poor fit]"
22,COc1ccc(N(C(=O)CCl)C(C(=O)NCCc2ccccc2)c2cccs2)cc1Cl (centres undefined),"inconclusive: 29.1 µM [inhibitor, single point]"

# Grouped by structure, those above containing an aryl thioether with sulfur outside any ring.
row,Structure (SMILES),Potency
11,Cc1noc(C)c1CSc1nnc(-c2c[nH]c3ccccc23)n1-c1ccc(Cl)cc1,"inconclusive: 7.08 µM [inhibitor, full curve, poor fit]"
4,Cc1cc(C)nc(SCC(=O)N/N=C/c2cc(C)n(-c3ccccc3C)c2C)n1,inactive
9,CCOC(=O)CC(=O)CSc1nc(-c2ccccc2)cc(-c2ccccc2)c1C#N,"inconclusive: 11.2 µM [inhibitor, partial curve, poor fit]"
